In publication doi:10.1101/2022.10.05.511050 (bioRxiv, 2022):
Results are given in words; binding and its absence hold for the method and conditions named. Binding seen in cells or lysates may run through a third protein. Some results given as binding are weak or reduced against the parent protein; the word gives no strength. For part of these data: Where a sequence is shown, tags or fusion partners need not be part of it.

Sequences of proteins named here, by UniProt entry; tags and fusion partners are left off. A change or cut given only in a name is not applied to a line headed by its entry. Residues count along the entry.
UniProt Q9R016, whole entry: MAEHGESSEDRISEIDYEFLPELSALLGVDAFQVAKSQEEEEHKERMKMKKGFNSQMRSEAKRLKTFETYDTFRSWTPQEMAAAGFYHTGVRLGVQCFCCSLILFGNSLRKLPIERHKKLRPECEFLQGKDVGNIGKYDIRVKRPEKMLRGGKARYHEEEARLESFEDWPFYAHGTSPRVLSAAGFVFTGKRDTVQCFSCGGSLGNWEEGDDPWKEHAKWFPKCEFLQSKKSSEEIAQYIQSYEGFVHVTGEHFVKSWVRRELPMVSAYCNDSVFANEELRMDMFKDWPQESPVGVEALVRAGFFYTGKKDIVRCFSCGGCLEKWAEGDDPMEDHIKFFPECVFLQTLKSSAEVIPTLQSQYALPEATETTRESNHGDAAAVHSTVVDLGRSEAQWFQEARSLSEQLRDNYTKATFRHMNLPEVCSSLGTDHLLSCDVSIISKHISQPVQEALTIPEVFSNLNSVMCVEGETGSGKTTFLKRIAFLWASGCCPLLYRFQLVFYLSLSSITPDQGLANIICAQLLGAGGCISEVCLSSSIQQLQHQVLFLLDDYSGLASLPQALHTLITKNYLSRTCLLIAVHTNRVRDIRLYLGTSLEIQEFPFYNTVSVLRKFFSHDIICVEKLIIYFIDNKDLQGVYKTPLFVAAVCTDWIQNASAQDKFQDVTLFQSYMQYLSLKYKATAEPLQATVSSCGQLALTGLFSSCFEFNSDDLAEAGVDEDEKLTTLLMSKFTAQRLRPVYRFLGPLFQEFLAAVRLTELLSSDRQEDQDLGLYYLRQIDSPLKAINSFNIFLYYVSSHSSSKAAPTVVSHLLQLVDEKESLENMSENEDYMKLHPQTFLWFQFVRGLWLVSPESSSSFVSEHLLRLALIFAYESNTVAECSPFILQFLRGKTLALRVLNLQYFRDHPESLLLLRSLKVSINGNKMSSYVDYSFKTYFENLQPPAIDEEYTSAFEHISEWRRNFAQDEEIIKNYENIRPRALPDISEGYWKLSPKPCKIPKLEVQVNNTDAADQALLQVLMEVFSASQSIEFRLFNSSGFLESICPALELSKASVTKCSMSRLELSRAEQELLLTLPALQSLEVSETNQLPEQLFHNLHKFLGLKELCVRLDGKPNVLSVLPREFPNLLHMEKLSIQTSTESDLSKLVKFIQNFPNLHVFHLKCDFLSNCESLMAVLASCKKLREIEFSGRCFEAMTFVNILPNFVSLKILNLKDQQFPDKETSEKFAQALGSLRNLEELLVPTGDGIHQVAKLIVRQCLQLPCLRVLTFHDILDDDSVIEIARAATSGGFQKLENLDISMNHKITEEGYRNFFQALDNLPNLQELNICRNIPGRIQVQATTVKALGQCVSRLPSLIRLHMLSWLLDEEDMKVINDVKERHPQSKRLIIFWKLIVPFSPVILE
UniProt Q3UP24, whole entry: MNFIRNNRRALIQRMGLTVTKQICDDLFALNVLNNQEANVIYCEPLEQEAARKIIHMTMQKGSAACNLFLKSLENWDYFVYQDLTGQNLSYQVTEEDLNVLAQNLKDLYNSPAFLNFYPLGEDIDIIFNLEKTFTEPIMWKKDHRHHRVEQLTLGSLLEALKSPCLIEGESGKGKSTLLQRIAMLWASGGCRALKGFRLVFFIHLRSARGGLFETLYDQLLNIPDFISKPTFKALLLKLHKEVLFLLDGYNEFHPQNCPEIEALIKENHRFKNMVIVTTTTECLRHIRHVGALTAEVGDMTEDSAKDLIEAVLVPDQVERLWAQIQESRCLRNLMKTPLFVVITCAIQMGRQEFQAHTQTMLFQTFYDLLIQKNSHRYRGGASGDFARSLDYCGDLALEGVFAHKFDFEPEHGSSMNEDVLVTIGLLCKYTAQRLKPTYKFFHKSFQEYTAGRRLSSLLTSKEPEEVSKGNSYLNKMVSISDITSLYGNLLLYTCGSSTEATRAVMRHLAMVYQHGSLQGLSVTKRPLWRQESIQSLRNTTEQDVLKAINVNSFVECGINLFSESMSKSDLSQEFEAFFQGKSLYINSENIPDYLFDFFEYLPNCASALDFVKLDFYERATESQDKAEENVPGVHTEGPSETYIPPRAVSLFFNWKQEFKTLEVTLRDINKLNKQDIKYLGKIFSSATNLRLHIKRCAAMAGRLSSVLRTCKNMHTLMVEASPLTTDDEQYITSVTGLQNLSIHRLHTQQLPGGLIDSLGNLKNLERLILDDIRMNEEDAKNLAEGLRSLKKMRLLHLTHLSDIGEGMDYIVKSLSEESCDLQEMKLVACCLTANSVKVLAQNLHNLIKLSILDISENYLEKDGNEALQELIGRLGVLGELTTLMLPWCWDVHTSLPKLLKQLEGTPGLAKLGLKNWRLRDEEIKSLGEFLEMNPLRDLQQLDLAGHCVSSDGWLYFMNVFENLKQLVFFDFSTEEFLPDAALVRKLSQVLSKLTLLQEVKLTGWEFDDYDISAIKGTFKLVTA
UniProt Q8R4B8, whole entry: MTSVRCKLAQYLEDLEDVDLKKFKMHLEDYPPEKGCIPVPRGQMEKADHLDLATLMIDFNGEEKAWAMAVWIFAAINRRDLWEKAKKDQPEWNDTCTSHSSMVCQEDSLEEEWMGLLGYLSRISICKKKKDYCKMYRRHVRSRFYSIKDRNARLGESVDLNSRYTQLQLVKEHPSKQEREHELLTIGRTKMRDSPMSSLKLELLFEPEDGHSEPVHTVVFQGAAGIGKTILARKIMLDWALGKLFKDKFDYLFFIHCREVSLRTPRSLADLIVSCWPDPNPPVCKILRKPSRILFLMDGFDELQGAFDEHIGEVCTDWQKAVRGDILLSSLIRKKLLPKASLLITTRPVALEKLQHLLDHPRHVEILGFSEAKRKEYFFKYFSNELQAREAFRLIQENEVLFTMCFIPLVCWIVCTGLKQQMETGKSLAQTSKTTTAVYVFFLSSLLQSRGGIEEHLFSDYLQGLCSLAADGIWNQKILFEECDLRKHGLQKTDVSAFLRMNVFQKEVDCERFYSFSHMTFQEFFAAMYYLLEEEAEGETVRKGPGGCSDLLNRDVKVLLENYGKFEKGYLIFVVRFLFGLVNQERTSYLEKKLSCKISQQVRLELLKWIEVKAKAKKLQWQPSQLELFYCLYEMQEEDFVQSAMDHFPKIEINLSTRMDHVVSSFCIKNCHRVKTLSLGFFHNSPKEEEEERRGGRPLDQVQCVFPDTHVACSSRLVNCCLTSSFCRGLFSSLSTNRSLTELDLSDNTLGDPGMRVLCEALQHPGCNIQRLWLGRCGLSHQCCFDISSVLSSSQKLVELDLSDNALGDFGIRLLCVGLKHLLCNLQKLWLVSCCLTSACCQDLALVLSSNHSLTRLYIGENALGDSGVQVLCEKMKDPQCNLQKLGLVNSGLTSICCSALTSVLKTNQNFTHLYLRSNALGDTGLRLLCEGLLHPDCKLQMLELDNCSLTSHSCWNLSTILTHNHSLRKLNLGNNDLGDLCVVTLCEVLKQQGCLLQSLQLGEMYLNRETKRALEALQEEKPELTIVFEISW
UniProt Q3TL44, 87-975: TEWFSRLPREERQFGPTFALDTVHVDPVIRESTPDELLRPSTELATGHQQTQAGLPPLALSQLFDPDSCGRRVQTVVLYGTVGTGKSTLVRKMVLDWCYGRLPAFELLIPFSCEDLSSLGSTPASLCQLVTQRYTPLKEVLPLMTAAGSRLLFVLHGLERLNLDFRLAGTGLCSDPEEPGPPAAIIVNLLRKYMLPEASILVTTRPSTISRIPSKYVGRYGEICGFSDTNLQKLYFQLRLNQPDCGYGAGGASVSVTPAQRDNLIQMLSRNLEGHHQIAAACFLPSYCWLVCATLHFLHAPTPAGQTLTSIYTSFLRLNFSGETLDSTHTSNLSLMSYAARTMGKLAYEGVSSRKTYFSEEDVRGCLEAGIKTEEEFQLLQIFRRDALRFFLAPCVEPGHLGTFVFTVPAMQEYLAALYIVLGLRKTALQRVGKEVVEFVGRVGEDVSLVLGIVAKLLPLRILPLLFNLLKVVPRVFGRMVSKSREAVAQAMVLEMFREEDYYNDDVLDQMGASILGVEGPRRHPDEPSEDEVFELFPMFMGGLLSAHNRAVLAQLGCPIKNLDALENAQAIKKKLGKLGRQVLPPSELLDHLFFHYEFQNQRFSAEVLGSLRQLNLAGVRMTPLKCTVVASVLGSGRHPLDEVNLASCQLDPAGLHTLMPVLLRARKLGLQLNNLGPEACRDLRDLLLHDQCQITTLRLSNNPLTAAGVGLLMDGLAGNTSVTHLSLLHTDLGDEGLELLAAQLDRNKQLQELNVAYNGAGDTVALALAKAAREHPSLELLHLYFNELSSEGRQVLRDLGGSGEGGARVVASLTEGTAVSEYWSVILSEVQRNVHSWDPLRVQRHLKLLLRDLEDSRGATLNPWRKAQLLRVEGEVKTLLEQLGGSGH
UniProt Q9QUN7, 25-784: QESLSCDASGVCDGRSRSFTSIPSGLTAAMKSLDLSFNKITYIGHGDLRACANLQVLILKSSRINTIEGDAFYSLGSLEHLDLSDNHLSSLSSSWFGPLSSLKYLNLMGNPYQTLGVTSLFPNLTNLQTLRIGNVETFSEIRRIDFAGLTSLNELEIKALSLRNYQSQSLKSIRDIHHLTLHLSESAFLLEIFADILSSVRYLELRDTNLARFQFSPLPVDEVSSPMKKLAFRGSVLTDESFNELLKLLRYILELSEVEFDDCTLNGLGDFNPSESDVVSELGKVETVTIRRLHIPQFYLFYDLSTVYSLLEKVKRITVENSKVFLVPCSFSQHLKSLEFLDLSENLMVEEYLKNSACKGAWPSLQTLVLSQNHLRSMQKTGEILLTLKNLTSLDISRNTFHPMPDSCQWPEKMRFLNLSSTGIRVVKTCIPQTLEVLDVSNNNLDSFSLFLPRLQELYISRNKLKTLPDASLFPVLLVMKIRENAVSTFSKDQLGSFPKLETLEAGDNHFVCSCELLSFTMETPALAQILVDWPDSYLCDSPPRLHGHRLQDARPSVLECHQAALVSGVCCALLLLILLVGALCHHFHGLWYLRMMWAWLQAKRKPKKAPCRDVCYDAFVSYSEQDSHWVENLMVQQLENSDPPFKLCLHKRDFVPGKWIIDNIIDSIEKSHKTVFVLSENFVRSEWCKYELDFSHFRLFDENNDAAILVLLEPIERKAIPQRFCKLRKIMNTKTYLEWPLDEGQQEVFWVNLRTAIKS

What was measured:
[1] = molecular target: Flag-PELO (reconstituted in Pelo mKO BMDMs) (UniProt Q80X73); experiment: co-IP
Flag-tagged NAIP5 = Flag-tagged NAIP5 (UniProt Q9R016); experiment: co-IP
[2] = molecular target: Flag-tagged PELO (HEK293T) (UniProt Q80X73); experiment: co-IP
[3] = molecular target: Flag-tagged NLRC4 (reconstituted in Nlrc4-/- BMDMs) (UniProt Q3UP24); experiment: co-IP
[4] = molecular target: endogenous NLRP3 (BMDMs) (mouse (endogenous in BMDMs)) (UniProt Q8R4B8); experiment: co-IP
[5] = molecular target: Flag-tagged full length (WT) NLRP3 (HEK293T) (mouse) (UniProt Q8R4B8); experiment: co-IP
[6] = molecular target: T1, AIM2 (co-expressed with PELO in HEK293T) (UniProt Q91VJ1); experiment: co-IP
T1 sequence: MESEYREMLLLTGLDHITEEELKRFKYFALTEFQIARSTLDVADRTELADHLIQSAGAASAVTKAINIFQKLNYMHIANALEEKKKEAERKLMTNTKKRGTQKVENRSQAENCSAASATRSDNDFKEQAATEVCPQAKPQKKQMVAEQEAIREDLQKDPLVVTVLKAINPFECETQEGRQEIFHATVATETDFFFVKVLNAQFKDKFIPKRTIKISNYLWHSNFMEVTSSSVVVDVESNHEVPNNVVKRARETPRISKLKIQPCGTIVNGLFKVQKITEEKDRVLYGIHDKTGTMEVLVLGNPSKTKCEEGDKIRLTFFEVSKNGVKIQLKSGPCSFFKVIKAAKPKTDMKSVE

Flag-tagged CIITA = molecular target: T2, Flag-tagged CIITA (UniProt P79621); experiment: co-IP
T2 sequence: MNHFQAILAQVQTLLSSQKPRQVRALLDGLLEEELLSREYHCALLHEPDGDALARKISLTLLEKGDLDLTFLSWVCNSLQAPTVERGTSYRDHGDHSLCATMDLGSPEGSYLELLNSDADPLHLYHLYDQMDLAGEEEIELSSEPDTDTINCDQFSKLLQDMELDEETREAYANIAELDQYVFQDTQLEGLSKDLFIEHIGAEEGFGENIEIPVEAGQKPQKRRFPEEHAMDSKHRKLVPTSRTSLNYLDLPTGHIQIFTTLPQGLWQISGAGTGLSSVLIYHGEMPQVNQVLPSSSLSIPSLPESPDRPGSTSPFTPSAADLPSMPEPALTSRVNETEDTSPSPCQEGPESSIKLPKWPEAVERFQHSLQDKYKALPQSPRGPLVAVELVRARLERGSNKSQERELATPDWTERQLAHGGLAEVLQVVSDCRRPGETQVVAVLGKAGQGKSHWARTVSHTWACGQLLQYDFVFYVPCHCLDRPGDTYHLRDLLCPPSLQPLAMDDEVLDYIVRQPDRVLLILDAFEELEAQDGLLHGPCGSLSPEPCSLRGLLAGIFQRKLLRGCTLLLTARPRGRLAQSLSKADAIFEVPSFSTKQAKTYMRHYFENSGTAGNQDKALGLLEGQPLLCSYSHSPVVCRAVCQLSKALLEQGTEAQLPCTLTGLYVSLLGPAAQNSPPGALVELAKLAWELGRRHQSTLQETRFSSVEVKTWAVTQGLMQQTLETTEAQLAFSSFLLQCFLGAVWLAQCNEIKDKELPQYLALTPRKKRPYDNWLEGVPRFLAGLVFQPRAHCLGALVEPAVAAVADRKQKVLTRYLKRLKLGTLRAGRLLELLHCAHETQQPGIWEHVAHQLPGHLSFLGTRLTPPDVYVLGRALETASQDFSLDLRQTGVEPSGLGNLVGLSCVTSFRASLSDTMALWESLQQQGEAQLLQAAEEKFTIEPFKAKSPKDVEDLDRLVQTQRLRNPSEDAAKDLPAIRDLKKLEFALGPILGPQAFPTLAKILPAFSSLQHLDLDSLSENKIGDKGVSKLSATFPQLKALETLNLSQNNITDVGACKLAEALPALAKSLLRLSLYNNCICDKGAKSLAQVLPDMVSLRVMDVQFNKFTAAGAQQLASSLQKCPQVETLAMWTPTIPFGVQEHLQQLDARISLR

Flag-tagged NLRX1 = Flag-tagged NLRX1 (UniProt Q3TL44); experiment: co-IP
[7] = molecular target: Flag-tagged full length (WT) NLRC4 (HEK293T) (mouse) (UniProt Q3UP24); experiment: co-IP
[8] = molecular target: T3, Flag-tagged full length (WT) NLRP6 (mouse) (UniProt Q91WS2); experiment: co-IP
T3 sequence: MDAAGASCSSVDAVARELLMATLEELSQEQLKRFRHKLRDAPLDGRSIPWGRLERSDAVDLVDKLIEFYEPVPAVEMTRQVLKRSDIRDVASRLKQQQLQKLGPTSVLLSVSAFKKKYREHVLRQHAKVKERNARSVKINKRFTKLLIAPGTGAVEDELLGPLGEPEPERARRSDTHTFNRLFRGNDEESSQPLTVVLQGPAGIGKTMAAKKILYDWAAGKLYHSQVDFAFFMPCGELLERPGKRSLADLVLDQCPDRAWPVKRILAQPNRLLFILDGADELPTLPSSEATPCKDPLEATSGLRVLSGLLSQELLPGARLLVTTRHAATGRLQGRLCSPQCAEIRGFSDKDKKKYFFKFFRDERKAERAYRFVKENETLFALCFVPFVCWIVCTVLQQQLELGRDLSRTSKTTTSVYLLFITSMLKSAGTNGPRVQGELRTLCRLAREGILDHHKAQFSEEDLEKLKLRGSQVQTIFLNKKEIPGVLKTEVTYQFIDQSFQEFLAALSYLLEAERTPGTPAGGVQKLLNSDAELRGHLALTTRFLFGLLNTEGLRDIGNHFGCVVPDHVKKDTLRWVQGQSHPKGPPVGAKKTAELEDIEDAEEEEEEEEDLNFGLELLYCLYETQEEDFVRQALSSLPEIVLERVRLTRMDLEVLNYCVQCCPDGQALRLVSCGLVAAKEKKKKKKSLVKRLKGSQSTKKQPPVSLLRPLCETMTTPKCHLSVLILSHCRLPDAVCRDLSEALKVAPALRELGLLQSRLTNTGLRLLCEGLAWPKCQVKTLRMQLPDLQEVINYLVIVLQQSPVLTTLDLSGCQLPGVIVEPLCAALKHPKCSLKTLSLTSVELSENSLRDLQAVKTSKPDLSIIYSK

[9] = molecular target: T4, Flag-tagged full length (WT) NOD2 (mouse) (UniProt Q8K3Z0); experiment: co-IP
T4 sequence: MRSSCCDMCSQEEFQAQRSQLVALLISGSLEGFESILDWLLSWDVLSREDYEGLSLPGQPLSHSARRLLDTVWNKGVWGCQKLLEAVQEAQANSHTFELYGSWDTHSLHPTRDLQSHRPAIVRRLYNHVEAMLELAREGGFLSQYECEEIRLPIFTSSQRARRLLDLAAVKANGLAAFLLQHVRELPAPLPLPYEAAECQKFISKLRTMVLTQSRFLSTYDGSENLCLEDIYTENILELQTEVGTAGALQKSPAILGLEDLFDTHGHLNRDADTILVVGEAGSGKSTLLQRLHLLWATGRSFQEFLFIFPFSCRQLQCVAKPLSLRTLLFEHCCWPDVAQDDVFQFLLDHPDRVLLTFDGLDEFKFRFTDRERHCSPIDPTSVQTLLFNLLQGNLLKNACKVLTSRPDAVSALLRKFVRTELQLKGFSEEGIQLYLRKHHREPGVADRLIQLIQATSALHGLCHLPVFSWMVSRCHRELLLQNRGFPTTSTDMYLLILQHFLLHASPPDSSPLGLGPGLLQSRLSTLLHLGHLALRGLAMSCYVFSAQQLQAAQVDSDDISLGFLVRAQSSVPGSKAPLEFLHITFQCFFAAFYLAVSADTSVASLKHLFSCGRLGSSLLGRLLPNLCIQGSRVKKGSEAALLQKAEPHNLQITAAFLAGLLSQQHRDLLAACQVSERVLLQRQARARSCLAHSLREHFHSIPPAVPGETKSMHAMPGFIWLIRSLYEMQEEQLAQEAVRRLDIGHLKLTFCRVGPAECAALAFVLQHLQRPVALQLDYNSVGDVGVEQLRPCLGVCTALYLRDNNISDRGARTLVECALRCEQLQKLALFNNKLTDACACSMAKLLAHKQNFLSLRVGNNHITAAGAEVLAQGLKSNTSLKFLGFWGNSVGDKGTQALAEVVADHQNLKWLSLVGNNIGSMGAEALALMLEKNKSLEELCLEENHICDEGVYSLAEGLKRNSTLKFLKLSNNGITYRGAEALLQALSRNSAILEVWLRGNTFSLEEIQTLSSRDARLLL

[10] = molecular target: Flag-tagged truncated NLRC4: NACHT domain (mouse) (UniProt Q3UP24); experiment: co-IP
[11] = molecular target: Flag-tagged truncated NLRP3: NACHT domain (mouse) (UniProt Q8R4B8); experiment: co-IP
[12] = molecular target: T5, Flag-tagged truncated NLRP6: NACHT domain (mouse) (UniProt Q91WS2); experiment: co-IP
T5 sequence: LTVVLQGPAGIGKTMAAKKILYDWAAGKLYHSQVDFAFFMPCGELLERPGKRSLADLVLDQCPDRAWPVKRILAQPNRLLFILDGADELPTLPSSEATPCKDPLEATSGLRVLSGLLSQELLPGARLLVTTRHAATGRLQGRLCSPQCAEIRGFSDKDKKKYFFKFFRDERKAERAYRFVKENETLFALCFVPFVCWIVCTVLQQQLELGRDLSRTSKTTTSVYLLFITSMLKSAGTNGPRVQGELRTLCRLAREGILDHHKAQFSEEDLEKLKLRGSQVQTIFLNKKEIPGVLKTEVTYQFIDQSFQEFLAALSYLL

[13] = molecular target: T6, Flag-tagged truncated NOD2: NACHT domain (mouse) (UniProt Q8K3Z0); experiment: co-IP
T6 sequence: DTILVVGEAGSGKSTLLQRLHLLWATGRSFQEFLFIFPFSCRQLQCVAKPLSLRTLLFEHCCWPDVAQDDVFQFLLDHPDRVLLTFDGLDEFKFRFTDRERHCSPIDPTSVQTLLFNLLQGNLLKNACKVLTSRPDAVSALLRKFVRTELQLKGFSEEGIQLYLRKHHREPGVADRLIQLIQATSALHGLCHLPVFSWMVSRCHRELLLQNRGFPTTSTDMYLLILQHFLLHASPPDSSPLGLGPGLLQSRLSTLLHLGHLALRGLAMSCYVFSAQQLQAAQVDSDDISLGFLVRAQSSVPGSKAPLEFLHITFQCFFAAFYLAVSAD

[14] = molecular target: TLR2 (co-expressed with PELO in HEK293T) (UniProt Q9QUN7); experiment: co-IP
HA-tagged NLRC4 = HA-tagged NLRC4 (UniProt Q3UP24 1-1024); experiment: co-sedimentation

endogenous NLRP3 (BMDMs) (from UniProt Q8R4B8 1-1033)
binding [1]: binds

HA-tagged NLRC4 (from UniProt Q3UP24 1-1024)
binding (Flag-tagged NAIP5): binds

endogenous NLRC4 (BMDMs) (from UniProt Q3UP24 1-1024)
binding [1]: binds

HA-tagged NLRP3 (from UniProt Q8R4B8 1-1033)
binding [2]: binds

endogenous PELO (protein pelota homolog) (from UniProt Q80X73 1-385)
binding [3]: binds
binding [4]: binds

recombinant His-tagged PELO protein (from UniProt Q80X73 1-385)
binding [5]: binds

B1: HA-tagged PELO (natural protein)
chain: MKLVRKDIEKDNAGQVTLVPEEPEDMWHTFNLVQVGDSLRASTIRKVQTESSTGSVGSNRVRTTLTLCVEAIDFDSQACQLRVKGTNIQENEYVKMGAYHTIELEPNRQFTLAKKQWDSVVLERIEQACDPAWSADVAAVVMQEGLAHVCLVTPSMTLTRAKVEVNIPRKRKGNCSQHDRALERFYEQVVQAIQRHINFEVVKCVLVASPGFVREQFCDYMFQQAVKTDNKVLLENRSKFLQVHASSGHKYSLKEALCDPTVASRLSDTKAAGEVKALDDFYKMLQHEPDRAFYGLKQVERANEALAIDTLLISDELFRHQDVATRSRYVRLVDSVKENAGTVRIFSSLHVSGEQLGQLTGVAAILRFPVPELSDQEDDSSSEED
binding [6]: no binding
binding (Flag-tagged CIITA): no binding
binding (Flag-tagged NAIP5): binds
binding (Flag-tagged NLRX1): no binding
binding [7]: binds
binding [5]: binds
binding [8]: binds
binding [9]: binds
binding [10]: binds
binding [11]: binds
binding [12]: binds
binding [13]: binds
binding [14]: no binding
binding (HA-tagged NLRC4): binds
